Test system: tenascin C
Assay: Biopanning of tenascin C-binding phages (Ph.D.-12 library), clone sequencing
Settings: 35 clones sequenced after three rounds of biopanning
Description: The phage-display peptide library (Ph.D.-12) was purchased from New England Biolabs (Beverly, Mass.). The phage library was panned for O/N at 4° C. in 96-well plates coated with 0.15 ml (His)6-tagged-TNCfnA-D (10 μg/ml) or full-length tenascin C protein (20 μg/ml) in 0.1 M NaHCO3 (pH 8.6). The wells were then blocked with blocking buffer (0.1 M NaHCO3 [pH 8.6], 0.5% BSA and 0.02% NaN3) for 1 h at 4° C. and 2×10^11 pfu/ml phages were added to the target protein-coated plates. After incubation for 30 min at 25° C., unbound or weakly bound phages were removed by rinsing ten times with TBST, and bound phages were eluted by incubation for 8 min in 0.1 ml elution buffer (0.2 M glycine-HCl [pH 2.2] and 0.1% BSA). […] After three rounds, independent clones were isolated on LB/IPTG/X-gal plates, and phage titers were calculated from the number of plaques formed.
Thirty five clones from the two independent selections were sequenced. […] The nucleotide sequences of the isolated DNAs were determined with an automatic sequencer (ABI prism) and primer 5′-[…]-3′ (SEQ ID NO:20).
To screen for peptide aptamers that bound to the cancer-specific tenascin C protein isoform, the alternatively spliced domain of fibronectin type III (FN III) (A1-D) was expressed as a His-tagged tenascin C protein (designated His-TNCfnA-D in FIG. 2A). […]

Sequence | Frequency (identical clones among the sequenced clones)
FHKHKSPALSPVGGG [peptide aptamer #2] | 19
FHKPFFPKGSARGGG [peptide aptamer #1] | 13
